For at least one compound, name, drawing or mass did not settle the structure.
Assays:
SK-N-MC cells = test: In vitro cancer cell migration assay; type: cell-based, human; conditions: SK-N-MC, 0.1, 0.3 or 1 μg/ml, observed 0-48 hours, versus control
VM-M3 cells = test: In vitro cancer cell invasion assay (membrane invasion culture system); type: cell-based; conditions: VM-M3, 0.1, 0.3 or 1 μg/ml, Matrigel, 18 hours
brain cancer = test: Clinical study in brain carcinoma; type: in vivo, human; conditions: patients with brain cancer, 100 mg capsule bid x 28 day cycles

How did the cell migration ability (SK-N-MC cells) turn out when `COC1=C(OC)C(O)C(C/C=C(\C)CC/C=C(\C)CCC=C(C)C)C(C)C1=O` (centres unmarked) [Compound 1, 4-hydroxy-2,3-dimethoxy-6-methyl-5-(3,7,11-trimethyldodeca-2,6,10-trienyl)cyclohex-2-enone] was run?
Its cell migration ability is “significantly decreases”.

What about the cell invasion ability (VM-M3 cells) of the same compound?
The cell invasion ability was “significantly decreases”.

What about the “growth of brain tumors and/or their metastases” value (brain cancer) of the same compound?
Its value is “prevents the growth of, and shrinks brain tumors and/or their metastases”.

What about the “survival and quality of life of patients” value (brain cancer) of the same compound?
Its value is “live longer with better quality of life”.

What about the “worsening of brain cancer” value (brain cancer) of the same compound?
Its value is “helps to slow the worsening of brain cancer”.

From US20130158113A1, “METHODS AND COMPOSITIONS FOR TREATING BRAIN CANCER” (Golden Biotechnology Corporation, priority 2011, published 2013)
